Measurements taken from the supplement of paper PMC12067093, “Discovery and optimisation of a covalent ligand for TRIM25 and its application to targeted protein ubiquitination” (Chemical Science, 2025).
Some of the results follow.

Protein sequences, listed by entry. Tags and fused reporters are not part of them. Lines headed by an entry give the natural chain unless they say otherwise; changes in a name come on top.
UniProt Q6P9B9, whole entry, looked up: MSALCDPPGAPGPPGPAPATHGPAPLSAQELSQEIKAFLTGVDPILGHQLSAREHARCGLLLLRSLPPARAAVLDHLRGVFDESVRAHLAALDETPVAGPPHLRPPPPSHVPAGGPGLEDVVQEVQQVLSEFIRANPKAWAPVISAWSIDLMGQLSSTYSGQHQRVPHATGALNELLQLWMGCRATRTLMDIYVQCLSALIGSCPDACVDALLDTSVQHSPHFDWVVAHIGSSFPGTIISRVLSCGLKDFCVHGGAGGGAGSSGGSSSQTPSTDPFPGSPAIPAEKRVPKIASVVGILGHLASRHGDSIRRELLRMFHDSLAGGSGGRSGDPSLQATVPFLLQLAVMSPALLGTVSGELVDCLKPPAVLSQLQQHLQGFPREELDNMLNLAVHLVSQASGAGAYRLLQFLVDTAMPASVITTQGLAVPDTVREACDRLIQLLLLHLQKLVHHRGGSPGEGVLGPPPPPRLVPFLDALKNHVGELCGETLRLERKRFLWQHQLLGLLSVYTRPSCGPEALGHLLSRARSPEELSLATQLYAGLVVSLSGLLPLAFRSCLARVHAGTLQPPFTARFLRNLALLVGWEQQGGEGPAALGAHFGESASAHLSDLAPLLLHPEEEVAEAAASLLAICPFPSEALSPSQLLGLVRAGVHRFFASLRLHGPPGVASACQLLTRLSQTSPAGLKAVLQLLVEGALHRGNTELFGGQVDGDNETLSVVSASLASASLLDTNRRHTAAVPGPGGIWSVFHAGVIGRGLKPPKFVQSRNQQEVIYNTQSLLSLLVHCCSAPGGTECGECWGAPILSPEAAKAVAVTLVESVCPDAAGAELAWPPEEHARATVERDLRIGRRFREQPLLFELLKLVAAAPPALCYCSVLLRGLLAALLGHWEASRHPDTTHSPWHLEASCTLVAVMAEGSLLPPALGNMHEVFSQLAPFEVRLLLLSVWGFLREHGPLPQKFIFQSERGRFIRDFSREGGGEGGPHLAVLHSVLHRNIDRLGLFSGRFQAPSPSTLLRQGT
UniProt P05556, whole entry, looked up: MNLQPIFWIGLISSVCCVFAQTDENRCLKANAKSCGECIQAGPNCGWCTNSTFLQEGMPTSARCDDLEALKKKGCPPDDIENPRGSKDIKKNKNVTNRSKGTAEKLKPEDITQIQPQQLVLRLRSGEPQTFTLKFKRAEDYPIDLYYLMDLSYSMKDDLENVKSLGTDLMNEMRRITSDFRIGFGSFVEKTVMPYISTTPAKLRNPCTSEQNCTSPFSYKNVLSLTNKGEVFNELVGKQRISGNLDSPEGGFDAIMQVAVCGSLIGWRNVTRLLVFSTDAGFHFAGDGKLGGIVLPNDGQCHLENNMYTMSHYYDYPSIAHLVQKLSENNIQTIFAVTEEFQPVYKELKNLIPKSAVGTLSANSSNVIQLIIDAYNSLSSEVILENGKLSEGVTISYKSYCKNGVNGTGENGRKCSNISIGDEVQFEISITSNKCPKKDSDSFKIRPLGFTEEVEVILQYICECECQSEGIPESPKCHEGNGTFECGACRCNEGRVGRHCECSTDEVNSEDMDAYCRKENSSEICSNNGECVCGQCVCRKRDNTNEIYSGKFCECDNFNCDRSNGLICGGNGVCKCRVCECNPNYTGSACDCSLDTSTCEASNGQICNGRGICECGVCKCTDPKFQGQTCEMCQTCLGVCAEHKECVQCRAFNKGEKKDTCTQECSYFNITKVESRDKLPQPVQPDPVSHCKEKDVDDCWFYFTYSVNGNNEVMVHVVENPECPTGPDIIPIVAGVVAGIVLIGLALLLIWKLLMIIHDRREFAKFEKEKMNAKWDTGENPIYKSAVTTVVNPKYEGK
UniProt O00410: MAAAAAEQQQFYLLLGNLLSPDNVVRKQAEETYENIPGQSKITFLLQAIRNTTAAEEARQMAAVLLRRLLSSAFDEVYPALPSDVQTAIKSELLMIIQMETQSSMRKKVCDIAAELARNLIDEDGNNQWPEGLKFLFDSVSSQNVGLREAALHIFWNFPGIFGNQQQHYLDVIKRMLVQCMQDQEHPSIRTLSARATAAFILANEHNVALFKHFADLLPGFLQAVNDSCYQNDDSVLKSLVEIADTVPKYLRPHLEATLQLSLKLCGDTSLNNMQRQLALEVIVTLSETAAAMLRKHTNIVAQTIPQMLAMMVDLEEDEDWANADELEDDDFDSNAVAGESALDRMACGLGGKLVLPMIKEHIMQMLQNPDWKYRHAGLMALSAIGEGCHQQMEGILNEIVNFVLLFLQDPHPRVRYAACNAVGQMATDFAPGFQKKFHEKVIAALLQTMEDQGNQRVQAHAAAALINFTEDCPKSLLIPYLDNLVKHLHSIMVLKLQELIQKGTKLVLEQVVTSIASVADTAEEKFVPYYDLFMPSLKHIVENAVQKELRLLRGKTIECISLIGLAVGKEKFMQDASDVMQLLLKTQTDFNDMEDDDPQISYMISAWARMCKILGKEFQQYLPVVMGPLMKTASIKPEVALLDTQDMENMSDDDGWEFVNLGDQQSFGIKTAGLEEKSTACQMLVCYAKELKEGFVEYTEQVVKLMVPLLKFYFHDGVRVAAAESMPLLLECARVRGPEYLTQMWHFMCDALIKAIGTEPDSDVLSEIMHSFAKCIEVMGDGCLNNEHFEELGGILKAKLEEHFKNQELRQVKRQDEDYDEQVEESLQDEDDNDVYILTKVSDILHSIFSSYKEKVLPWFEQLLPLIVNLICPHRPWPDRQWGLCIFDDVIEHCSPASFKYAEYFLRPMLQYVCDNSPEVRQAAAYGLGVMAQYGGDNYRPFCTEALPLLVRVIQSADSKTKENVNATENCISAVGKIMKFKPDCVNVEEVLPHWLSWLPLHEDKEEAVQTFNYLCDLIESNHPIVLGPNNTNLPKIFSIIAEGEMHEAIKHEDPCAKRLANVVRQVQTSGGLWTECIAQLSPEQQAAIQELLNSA
UniProt Q8TEX9: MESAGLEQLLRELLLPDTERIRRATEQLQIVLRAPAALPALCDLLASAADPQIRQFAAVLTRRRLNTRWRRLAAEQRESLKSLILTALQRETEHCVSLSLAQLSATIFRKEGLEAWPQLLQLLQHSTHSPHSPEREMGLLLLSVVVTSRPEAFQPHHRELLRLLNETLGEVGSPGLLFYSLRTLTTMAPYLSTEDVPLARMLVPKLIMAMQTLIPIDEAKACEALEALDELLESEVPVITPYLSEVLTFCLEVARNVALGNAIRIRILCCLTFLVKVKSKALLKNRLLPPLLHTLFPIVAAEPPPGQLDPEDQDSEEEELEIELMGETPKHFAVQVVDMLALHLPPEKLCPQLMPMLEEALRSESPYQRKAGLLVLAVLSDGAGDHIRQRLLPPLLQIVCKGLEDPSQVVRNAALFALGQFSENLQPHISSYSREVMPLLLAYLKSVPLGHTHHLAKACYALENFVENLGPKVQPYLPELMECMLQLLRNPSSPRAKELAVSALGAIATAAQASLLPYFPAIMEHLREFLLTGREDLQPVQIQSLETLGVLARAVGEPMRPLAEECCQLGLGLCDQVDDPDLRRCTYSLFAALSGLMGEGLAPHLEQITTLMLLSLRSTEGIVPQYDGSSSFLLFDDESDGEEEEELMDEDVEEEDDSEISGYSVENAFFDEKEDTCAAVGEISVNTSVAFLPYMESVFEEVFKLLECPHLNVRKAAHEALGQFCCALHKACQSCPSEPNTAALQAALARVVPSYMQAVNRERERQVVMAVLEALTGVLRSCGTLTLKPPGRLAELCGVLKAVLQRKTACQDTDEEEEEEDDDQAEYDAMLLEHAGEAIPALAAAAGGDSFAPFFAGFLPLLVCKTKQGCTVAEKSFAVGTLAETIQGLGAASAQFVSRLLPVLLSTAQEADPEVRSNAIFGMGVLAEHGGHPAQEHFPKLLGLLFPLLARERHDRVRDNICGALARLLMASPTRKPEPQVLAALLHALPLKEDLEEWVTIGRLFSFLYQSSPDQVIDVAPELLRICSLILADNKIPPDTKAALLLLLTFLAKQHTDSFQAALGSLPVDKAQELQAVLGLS
UniProt Q96AB3: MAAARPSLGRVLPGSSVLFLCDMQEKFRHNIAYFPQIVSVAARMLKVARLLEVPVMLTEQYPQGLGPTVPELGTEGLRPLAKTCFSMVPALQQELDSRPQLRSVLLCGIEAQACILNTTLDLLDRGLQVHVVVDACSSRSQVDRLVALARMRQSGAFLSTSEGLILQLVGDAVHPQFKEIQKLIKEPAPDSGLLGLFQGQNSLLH
UniProt P06213, whole entry, looked up: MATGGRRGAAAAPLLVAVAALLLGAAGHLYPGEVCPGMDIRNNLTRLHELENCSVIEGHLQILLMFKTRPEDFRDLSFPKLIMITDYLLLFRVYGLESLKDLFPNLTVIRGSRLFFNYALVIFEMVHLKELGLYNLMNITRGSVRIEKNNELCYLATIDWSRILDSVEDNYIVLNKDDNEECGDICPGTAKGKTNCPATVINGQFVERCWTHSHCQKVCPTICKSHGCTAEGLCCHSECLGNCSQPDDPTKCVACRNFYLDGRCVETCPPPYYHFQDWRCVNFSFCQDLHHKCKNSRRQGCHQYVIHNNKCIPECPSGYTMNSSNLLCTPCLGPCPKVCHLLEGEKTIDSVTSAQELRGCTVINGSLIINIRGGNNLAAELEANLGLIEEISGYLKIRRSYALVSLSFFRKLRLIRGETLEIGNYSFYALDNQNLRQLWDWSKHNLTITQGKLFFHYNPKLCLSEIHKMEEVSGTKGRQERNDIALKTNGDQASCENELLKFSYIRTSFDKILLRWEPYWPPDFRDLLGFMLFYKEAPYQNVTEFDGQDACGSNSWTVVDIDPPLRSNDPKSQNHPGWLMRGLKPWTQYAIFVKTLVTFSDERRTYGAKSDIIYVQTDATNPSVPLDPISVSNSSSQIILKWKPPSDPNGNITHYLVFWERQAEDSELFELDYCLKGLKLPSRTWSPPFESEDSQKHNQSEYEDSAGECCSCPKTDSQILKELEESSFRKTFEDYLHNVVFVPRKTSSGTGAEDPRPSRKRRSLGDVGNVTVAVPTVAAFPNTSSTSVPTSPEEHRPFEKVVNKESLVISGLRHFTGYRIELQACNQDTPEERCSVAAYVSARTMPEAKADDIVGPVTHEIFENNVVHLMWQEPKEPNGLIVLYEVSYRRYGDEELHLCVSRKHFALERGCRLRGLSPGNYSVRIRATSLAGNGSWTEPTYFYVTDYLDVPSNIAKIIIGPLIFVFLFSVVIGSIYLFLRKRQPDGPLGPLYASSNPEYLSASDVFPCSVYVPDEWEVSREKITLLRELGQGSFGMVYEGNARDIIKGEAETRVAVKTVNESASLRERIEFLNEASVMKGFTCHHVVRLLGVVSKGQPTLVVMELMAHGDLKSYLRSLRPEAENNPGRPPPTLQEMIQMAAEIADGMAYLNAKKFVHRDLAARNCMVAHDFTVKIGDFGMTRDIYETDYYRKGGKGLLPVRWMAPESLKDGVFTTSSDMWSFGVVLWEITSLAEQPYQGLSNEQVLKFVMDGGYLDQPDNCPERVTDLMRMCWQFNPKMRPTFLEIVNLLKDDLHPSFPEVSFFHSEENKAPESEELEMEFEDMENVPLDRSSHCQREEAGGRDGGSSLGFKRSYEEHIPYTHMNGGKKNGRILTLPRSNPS
UniProt P05107, whole entry, looked up: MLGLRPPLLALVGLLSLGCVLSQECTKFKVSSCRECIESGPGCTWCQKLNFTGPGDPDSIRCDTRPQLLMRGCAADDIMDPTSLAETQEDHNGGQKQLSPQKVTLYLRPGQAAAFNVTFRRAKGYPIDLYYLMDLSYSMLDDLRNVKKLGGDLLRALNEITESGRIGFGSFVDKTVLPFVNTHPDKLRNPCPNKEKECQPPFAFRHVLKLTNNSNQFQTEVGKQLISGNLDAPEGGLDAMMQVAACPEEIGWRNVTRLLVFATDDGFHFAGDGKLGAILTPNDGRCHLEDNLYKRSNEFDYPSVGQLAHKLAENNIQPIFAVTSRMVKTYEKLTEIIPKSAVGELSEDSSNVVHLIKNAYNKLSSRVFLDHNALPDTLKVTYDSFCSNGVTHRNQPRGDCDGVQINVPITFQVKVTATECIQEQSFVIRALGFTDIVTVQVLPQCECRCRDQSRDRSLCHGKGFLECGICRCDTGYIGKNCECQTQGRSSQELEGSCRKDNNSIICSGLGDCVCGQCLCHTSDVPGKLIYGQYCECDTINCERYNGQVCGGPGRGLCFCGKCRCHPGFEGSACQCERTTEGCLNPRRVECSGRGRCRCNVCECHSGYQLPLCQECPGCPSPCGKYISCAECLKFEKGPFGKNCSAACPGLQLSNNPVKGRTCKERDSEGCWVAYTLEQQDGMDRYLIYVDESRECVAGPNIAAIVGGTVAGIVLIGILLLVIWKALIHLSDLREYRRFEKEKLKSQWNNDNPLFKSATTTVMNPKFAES

Compound: Cc1cc(ccc1-c1ccccc1)C(=O)N1CCCN(CC1)C(=O)CCl [compound 10]
Experiment: probe-labelled cysteine peptide fold change vs DMSO (competition) (log2 fold change); higher = less target engagement (more negative = stronger competition)
Settings: THP-1, incubation time: 4 h
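Note: competitive profiling in live THP-1 cells: cysteine peptides tagged with an iodoacetamide desthiobiotin (IA-DTB) probe, intensity after compound treatment relative to DMSO-treated cells.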

**Q.** Which “probe-labelled cysteine peptide fold change” value (10 µM) does the source give for “IRS2_Q9Y4H2_248_CGHSDSFFFIEVGR (UniProt Q9Y4H2)” here?
**A.** The value was -0.0145.

**Q.** And the “probe-labelled cysteine peptide fold change” value (50 µM)?
**A.** The value was -0.134.

**Q.** How did the “probe-labelled cysteine peptide fold change” value (10 µM) turn out when “IPO8_O15397_478_SCWVLHAFSSLK (UniProt O15397)” was run?
**A.** Its value is -0.071.

**Q.** And the “probe-labelled cysteine peptide fold change” value (50 µM)?
**A.** The value was 0.0544.

**Q.** How did the “probe-labelled cysteine peptide fold change” value (10 µM) turn out when “IQGAP1_P46940_494_QLSSSVTGLTNIEEENCQR (UniProt P46940)” was run?
**A.** The value was 0.102.

**Q.** And the “probe-labelled cysteine peptide fold change” value (50 µM)?
**A.** The value was 0.131.

**Q.** Which “probe-labelled cysteine peptide fold change” value (10 µM) does the source give for “INTS3_Q68E01_866_MVLSRPCHPDDQFTTSILR (UniProt Q68E01)” here?
**A.** The value was -0.0901.

**Q.** And the “probe-labelled cysteine peptide fold change” value (50 µM)?
**A.** Its value is 0.0639.

**Q.** “INTS1_Q8N201_1433_SHFLACPLLR (UniProt Q8N201)” was tested. Which “probe-labelled cysteine peptide fold change” value (10 µM) did it give?
**A.** The value was -0.0508.

**Q.** And the “probe-labelled cysteine peptide fold change” value (50 µM)?
**A.** Its value is 0.0888.

**Q.** For “INTS5_Q6P9B9_245_VLSCGLK (UniProt Q6P9B9)”, which “probe-labelled cysteine peptide fold change” value (10 µM) is on record?
**A.** Its value is -0.277.

**Q.** And the “probe-labelled cysteine peptide fold change” value (50 µM)?
**A.** Its value is -0.364.

**Q.** With “INTS13_Q9NVM9_560_VLECLMACR (UniProt Q9NVM9)” as the target, how does the “probe-labelled cysteine peptide fold change” value (10 µM) read?
**A.** The value was 0.0497.

**Q.** And the “probe-labelled cysteine peptide fold change” value (50 µM)?
**A.** The value was -0.385.

**Q.** How did the “probe-labelled cysteine peptide fold change” value (10 µM) turn out when “ITGAM_P11215_144_GCPQEDSDIAFLIDGSGSIIPHDFR (UniProt P11215)” was run?
**A.** The value was 0.335.

**Q.** And the “probe-labelled cysteine peptide fold change” value (50 µM)?
**A.** Its value is 0.732.

**Q.** Which “probe-labelled cysteine peptide fold change” value (10 µM) does the source give for “INTS9_Q9NV88_5+14_LYCLSGHPTLPCNVLK (UniProt Q9NV88)” here?
**A.** Its value is 0.035.

**Q.** And the “probe-labelled cysteine peptide fold change” value (50 µM)?
**A.** The value was -0.0263.

**Q.** Which results are given for “ITGB1_P05556_500_HCECSTDEVNSEDMDAYCR (UniProt P05556)”?
**A.** probe-labelled cysteine peptide fold change (10 µM): -0.0207; probe-labelled cysteine peptide fold change (50 µM): -0.251

**Q.** “IPO5_O00410_473_VQAHAAAALINFTEDCPK (UniProt O00410)” was tested. Which “probe-labelled cysteine peptide fold change” value (10 µM) did it give?
**A.** The value was -0.0097.

**Q.** What about the “probe-labelled cysteine peptide fold change” value (50 µM) of the same target?
**A.** The value was 0.166.

**Q.** With “IPO4_Q8TEX9_269_ILCCLTFLVK (UniProt Q8TEX9)” as the target, how does the “probe-labelled cysteine peptide fold change” value (10 µM) read?
**A.** Its value is -0.534.

**Q.** And the “probe-labelled cysteine peptide fold change” value (50 µM)?
**A.** The value was 0.0198.

**Q.** Which results are given for “IPO7_O95373_90_ETAPGDISPYTIPEEDRHCIR (UniProt O95373)”?
**A.** probe-labelled cysteine peptide fold change (10 µM): -0.107; probe-labelled cysteine peptide fold change (50 µM): -0.00395

**Q.** How did the “probe-labelled cysteine peptide fold change” value (10 µM) turn out when “ISOC2_Q96AB3_136_GLQVHVVVDACSSR (UniProt Q96AB3)” was run?
**A.** The value was -0.129.

**Q.** And the “probe-labelled cysteine peptide fold change” value (50 µM)?
**A.** The value was -0.216.

**Q.** Which “probe-labelled cysteine peptide fold change” value (10 µM) does the source give for “ITGA5_P08648_921_CELGPLHQQESQSLQLHFR (UniProt P08648)” here?
**A.** Its value is -0.263.

**Q.** And the “probe-labelled cysteine peptide fold change” value (50 µM)?
**A.** Its value is -0.00646.

**Q.** Which results are given for “IPO5_O00410_180_MLVQCMQDQEHPSIR (UniProt O00410)”?
**A.** probe-labelled cysteine peptide fold change (10 µM): 0.0241; probe-labelled cysteine peptide fold change (50 µM): -0.0412

**Q.** What does the source list for “ISL2_Q96A47_30_KKPGTAMCVGCGSQIHDQFILR (UniProt Q96A47)”?
**A.** probe-labelled cysteine peptide fold change (10 µM): -0.0089; probe-labelled cysteine peptide fold change (50 µM): -0.186

**Q.** For “INSR_P06213_899_RYGDEELHLCVSR (UniProt P06213)”, which “probe-labelled cysteine peptide fold change” value (10 µM) is on record?
**A.** Its value is -0.188.

**Q.** And the “probe-labelled cysteine peptide fold change” value (50 µM)?
**A.** The value was 0.0944.

**Q.** Which results are given for “ITGB1_P05556_64_CDDLEALK (UniProt P05556)”?
**A.** probe-labelled cysteine peptide fold change (10 µM): -0.155; probe-labelled cysteine peptide fold change (50 µM): -0.196

**Q.** With “INTS8_Q75QN2_295_ELIAEIGSLSLHCTIDEK (UniProt Q75QN2)” as the target, how does the “probe-labelled cysteine peptide fold change” value (10 µM) read?
**A.** Its value is 0.154.

**Q.** And the “probe-labelled cysteine peptide fold change” value (50 µM)?
**A.** The value was -0.0496.

**Q.** Which “probe-labelled cysteine peptide fold change” value (10 µM) does the source give for “INTS5_Q6P9B9_58_CGLLLLR (UniProt Q6P9B9)” here?
**A.** Its value is 0.0348.

**Q.** What about the “probe-labelled cysteine peptide fold change” value (50 µM) of the same target?
**A.** Its value is -0.413.

**Q.** Which “probe-labelled cysteine peptide fold change” value (10 µM) does the source give for “ITGB2_P05107_445+447_ALGFTDIVTVQVLPQCECR (UniProt P05107)” here?
**A.** The value was -0.00166.

**Q.** What about the “probe-labelled cysteine peptide fold change” value (50 µM) of the same target?
**A.** The value was -0.199.

**Q.** What does the source list for “IRGQ_Q8WZA9_28_SALIAALCDK (UniProt Q8WZA9)”?
**A.** probe-labelled cysteine peptide fold change (10 µM): -0.124; probe-labelled cysteine peptide fold change (50 µM): 0.0182

**Q.** “INPPL1_O15357_405_EAFCQLLQLMK (UniProt O15357)” was tested. Which “probe-labelled cysteine peptide fold change” value (10 µM) did it give?
**A.** Its value is -0.0354.

**Q.** What about the “probe-labelled cysteine peptide fold change” value (50 µM) of the same target?
**A.** Its value is 0.0749.

**Q.** Which “probe-labelled cysteine peptide fold change” value (10 µM) does the source give for “IRF2BP2_Q7Z5L9_521_LEDTHFVQCPSVPSHK (UniProt Q7Z5L9)” here?
**A.** The value was 0.131.

**Q.** What about the “probe-labelled cysteine peptide fold change” value (50 µM) of the same target?
**A.** Its value is -0.0429.

**Q.** Which results are given for “IQGAP3_Q86VI3_1254_ACQVPEPEER (UniProt Q86VI3)”?
**A.** probe-labelled cysteine peptide fold change (10 µM): 0.125; probe-labelled cysteine peptide fold change (50 µM): 0.0621

**Q.** What does the source list for “IRF2BPL_Q9H1B7_385_DTLLTLAGCTPYEVR (UniProt Q9H1B7)”?
**A.** probe-labelled cysteine peptide fold change (10 µM): 0.193; probe-labelled cysteine peptide fold change (50 µM): 0.244

**Q.** Which results are given for “ITGB2_P05107_467+470_GFLECGICR (UniProt P05107)”?
**A.** probe-labelled cysteine peptide fold change (10 µM): 0.141; probe-labelled cysteine peptide fold change (50 µM): -0.357

**Q.** With “ITGB2_P05107_386_VTYDSFCSNGVTHR (UniProt P05107)” as the target, how does the “probe-labelled cysteine peptide fold change” value (10 µM) read?
**A.** The value was -0.107.

**Q.** And the “probe-labelled cysteine peptide fold change” value (50 µM)?
**A.** The value was -0.159.

**Q.** For “ITGB2_P05107_36_ECIESGPGCTWCQK (UniProt P05107)”, which “probe-labelled cysteine peptide fold change” value (10 µM) is on record?
**A.** The value was 0.199.

**Q.** What about the “probe-labelled cysteine peptide fold change” value (50 µM) of the same target?
**A.** Its value is 0.128.

**Q.** For “INSR_P06213_1165_NCMVAHDFTVK (UniProt P06213)”, which “probe-labelled cysteine peptide fold change” value (10 µM) is on record?
**A.** Its value is 0.0665.

**Q.** And the “probe-labelled cysteine peptide fold change” value (50 µM)?
**A.** The value was -0.105.

**Q.** For “IPO4_Q8TEX9_350_LCPQLMPMLEEALR (UniProt Q8TEX9)”, which “probe-labelled cysteine peptide fold change” value (10 µM) is on record?
**A.** The value was -0.16.

**Q.** What about the “probe-labelled cysteine peptide fold change” value (50 µM) of the same target?
**A.** Its value is -0.384.

**Q.** With “ITGAM_P11215_654_VCLHVQK (UniProt P11215)” as the target, how does the “probe-labelled cysteine peptide fold change” value (10 µM) read?
**A.** The value was -0.0926.

**Q.** What about the “probe-labelled cysteine peptide fold change” value (50 µM) of the same target?
**A.** Its value is 0.0983.

**Q.** For “ITGAL_P20701_845_PHSQIPVSCEELPEESR (UniProt P20701)”, which “probe-labelled cysteine peptide fold change” value (10 µM) is on record?
**A.** Its value is -0.418.

**Q.** And the “probe-labelled cysteine peptide fold change” value (50 µM)?
**A.** The value was 0.101.

**Q.** Which “probe-labelled cysteine peptide fold change” value (10 µM) does the source give for “ITGA4_P13612_902_ADPHCLNFLCNFGK (UniProt P13612)” here?
**A.** Its value is -0.0927.

**Q.** What about the “probe-labelled cysteine peptide fold change” value (50 µM) of the same target?
**A.** The value was 0.265.

**Q.** Which results are given for “IRF5_Q13568_272_ALTISNPHGCR (UniProt Q13568)”?
**A.** probe-labelled cysteine peptide fold change (10 µM): 0.15; probe-labelled cysteine peptide fold change (50 µM): 0.0735

**Q.** What does the source list for “IRF2BP2_Q7Z5L9_506_EVGGQGAGNTGGLEPVHPASLPDSSLATSAPLCCTLCHER (UniProt Q7Z5L9)”?
**A.** probe-labelled cysteine peptide fold change (10 µM): 0.164; probe-labelled cysteine peptide fold change (50 µM): 0.216

**Q.** Which results are given for “IPO13_O94829_848_CGEVESVGK (UniProt O94829)”?
**A.** probe-labelled cysteine peptide fold change (10 µM): -0.193; probe-labelled cysteine peptide fold change (50 µM): -0.0957

**Q.** With “IPO7_O95373_504_CLIDDREMPVK (UniProt O95373)” as the target, how does the “probe-labelled cysteine peptide fold change” value (10 µM) read?
**A.** Its value is -0.0369.

**Q.** And the “probe-labelled cysteine peptide fold change” value (50 µM)?
**A.** Its value is -0.368.
